Results as given in PMC4792416.
Where two headings read alike, the source gives them in different places. No constants are given. Whether binding was seen depends on the method and setting. For part of these data: A result given as binding can be weak or reduced; the word gives no strength. For part of these data: Where a sequence is shown, tags or fusion partners need not be part of it. For part of these data: Binding seen in cells or lysates may run through a third protein. Blank lines part the entries; values can stand above or below the molecule they belong to.

Protein sequences, listed by entry. Tags and fused reporters are not part of them. Lines headed by an entry give the natural chain unless they say otherwise; changes in a name come on top.
UniProt O82307: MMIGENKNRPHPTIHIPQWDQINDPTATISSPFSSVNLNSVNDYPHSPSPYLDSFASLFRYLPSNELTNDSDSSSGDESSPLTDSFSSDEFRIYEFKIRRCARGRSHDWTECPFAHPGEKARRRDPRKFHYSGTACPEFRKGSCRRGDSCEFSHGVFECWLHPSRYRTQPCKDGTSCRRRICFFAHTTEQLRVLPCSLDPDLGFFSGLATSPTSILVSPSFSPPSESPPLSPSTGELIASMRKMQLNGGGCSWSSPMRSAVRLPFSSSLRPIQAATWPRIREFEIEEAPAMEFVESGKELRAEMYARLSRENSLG
UniProt P43297: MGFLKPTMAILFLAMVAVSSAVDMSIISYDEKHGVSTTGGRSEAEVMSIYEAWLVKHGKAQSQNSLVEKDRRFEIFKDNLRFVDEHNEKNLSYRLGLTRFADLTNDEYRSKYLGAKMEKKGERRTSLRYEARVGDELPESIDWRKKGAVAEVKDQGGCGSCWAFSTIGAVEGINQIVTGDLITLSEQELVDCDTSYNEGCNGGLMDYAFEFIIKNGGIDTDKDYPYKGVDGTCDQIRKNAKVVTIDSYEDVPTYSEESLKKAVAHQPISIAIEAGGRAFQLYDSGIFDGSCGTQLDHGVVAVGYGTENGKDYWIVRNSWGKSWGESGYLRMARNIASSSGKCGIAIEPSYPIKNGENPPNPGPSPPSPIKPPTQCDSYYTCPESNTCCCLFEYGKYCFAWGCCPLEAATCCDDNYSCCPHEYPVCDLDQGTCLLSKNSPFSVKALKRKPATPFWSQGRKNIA

Columns and labels:
[1] = target: T1, AtTZF6 full length, GAL4 DNA binding domain fusion (pAS1 bait) (Arabidopsis thaliana) (UniProt O65036); assay: two-hybrid; directed test in yeast PJ69-4A by co-expression of bait (GAL4 BD, pAS1) and prey (GAL4 AD); growth assay
T1 sequence: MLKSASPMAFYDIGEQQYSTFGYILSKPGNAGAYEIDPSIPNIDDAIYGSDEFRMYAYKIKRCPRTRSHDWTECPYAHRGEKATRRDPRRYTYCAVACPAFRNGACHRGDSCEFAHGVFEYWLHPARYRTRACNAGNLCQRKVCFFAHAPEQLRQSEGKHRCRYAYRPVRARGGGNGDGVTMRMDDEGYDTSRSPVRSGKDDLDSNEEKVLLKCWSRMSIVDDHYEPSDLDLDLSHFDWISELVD

[2] = target: AtTZF1 full length, GAL4 DNA binding domain fusion (pAS1 bait) (Arabidopsis thaliana) (UniProt O82307); assay: as above
[3] = target: AtTZF5 full length, GAL4 DNA binding domain fusion (pAS1 bait) (Arabidopsis thaliana); assay: as above
[4] = target: AtTZF1 full length, GAL4 DNA binding domain fusion (pAS1 bait) (Arabidopsis thaliana) (UniProt O82307); assay: as above; remark: listed apart in the source
[5] = target: AtTZF5 TZF motif, GAL4 DNA binding domain fusion (pAS1 bait) (Arabidopsis thaliana); assay: as above
[6] = target: AtTZF5 RR-TZF motif, GAL4 DNA binding domain fusion (pAS1 bait) (Arabidopsis thaliana); assay: as above
[7] = target: AtTZF5 TZF motif, BiFC fusion (Arabidopsis thaliana); assay: split reporter; BiFC with CYFP and NYFP fusions, paired constructs co-transformed into Arabidopsis protoplasts; YFP fluorescence by microscopy
[8] = target: AtTZF5 RR-TZF motif, BiFC fusion (Arabidopsis thaliana); assay: as above
[9] = target: AtTZF1-CYFP (Arabidopsis thaliana) (UniProt O82307); assay: as above
[10] = target: AtTZF5 full length, GFP-tagged (pK7FWG2) (Arabidopsis thaliana); assay: co-IP; GFP-tagged and HA-tagged proteins co-expressed with p19 in N. benthamiana leaves by agroinfiltration; anti-GFP antibody on protein A Sepharose, 2 h at 4°C; co-IP products detected with anti-HA antibody

binding [3]: binds
binding [4]: no binding
binding [5]: no binding
binding [6]: no binding
B1: Mediator of ABA-Regulated Dormancy 1 (MARD1) full length, GAL4 activation domain fusion (pAD-GAL4-2.1 prey) (protein, UniProt Q8LGS1 1-263)
chain: MLRNKPRAAVTTKKQTSLLMADQPPPPKPNTCHCSPSLFSSPKFRFFTSKMMMTPFDSDFSLVSPTSILEANPSIFSSKNPKPVSYFEPTIPNPQRFHSPDVFGLADLVKDGDSNRDHSRKPVNKMVLFGSKLRVQIPSSADFGTKTGIRYPPCQLSPCVQTKVLAVSEIDQTEDYTRVISHGPNPTITHIFDNSVFVEATPCSVPLPQPAMETKSTESFLSRCFTCKKNLDQKQDIYIYRGEKGFCSSECRYQEMLLDQMET

binding [7]: binds
binding [8]: binds
binding [9]: no binding
B2: MARD1-NYFP (protein, UniProt Q8LGS1 1-263)
chain: MLRNKPRAAVTTKKQTSLLMADQPPPPKPNTCHCSPSLFSSPKFRFFTSKMMMTPFDSDFSLVSPTSILEANPSIFSSKNPKPVSYFEPTIPNPQRFHSPDVFGLADLVKDGDSNRDHSRKPVNKMVLFGSKLRVQIPSSADFGTKTGIRYPPCQLSPCVQTKVLAVSEIDQTEDYTRVISHGPNPTITHIFDNSVFVEATPCSVPLPQPAMETKSTESFLSRCFTCKKNLDQKQDIYIYRGEKGFCSSECRYQEMLLDQMET

binding [10]: binds
B3: AtMARD1 full length, HA-tagged (pGWB15) (protein, UniProt Q8LGS1 1-263)
chain: MLRNKPRAAVTTKKQTSLLMADQPPPPKPNTCHCSPSLFSSPKFRFFTSKMMMTPFDSDFSLVSPTSILEANPSIFSSKNPKPVSYFEPTIPNPQRFHSPDVFGLADLVKDGDSNRDHSRKPVNKMVLFGSKLRVQIPSSADFGTKTGIRYPPCQLSPCVQTKVLAVSEIDQTEDYTRVISHGPNPTITHIFDNSVFVEATPCSVPLPQPAMETKSTESFLSRCFTCKKNLDQKQDIYIYRGEKGFCSSECRYQEMLLDQMET

binding [3]: no binding
B4: DCP5, GAL4 activation domain fusion (protein, UniProt Q9C658 1-611)
chain: MAADNTGSKSSSAADSYVGSLISLTSKSEIRYEGILYNINTDESSIGLQNVRSFGTEGRKKDGPQVPPSDKVYEYILFRGTDIKDLQVKASPPVQPPASTINNDPAIIQSHYPSPMPTSGSLPSTASGSLPDISSHNGQPGQHGMGFQNAMPLYQPGGNLGSWGASPQPPMYWQGFYTPPPNGLPQLHQQSLIRPPHGLPMPNSLQQPLQYPNFNTPPPPTGSSSLQGSSLPEAPSSLFPFSTSSQMLAPSSLPFPGLPPVTLSSSLQSTLQSAPSPSLASEMAPPLLSNKAPITAPPTLPQDTNLLSFSLSTTRATEASTGLPLSNKPSVVTGPISPPQTTPLTSAPVAGVSSSISQDKPKPLLVTPGQLLQSGSSAVSLSPPSTNADKDVEVVQVSSSAGLEQSVPVTSEAQPPILPLPSSARPTQKPNGHSFPNHNGYRGRGRGRGRGAGRSHQVMKFTEDFDFTAMNEKFNKDEVWGHLGKSTTLDGDEDDDSPTVDEAELPKIEAKPVYNKDDFFDSLSSNTIDRESQNSRPRFSEQRKLDTETFGEFSRFRGGRGGRGGYGRNNGYSRGGYGGRGYGGYGGRGGGGGGYGYGGRGQGRGVSNRTT

The remaining lines, values behind:

Molecule: DCP1, GAL4 activation domain fusion (Arabidopsis thaliana)
binding [1]: no binding

Molecule: Responsive to Dehydration 21A (RD21A) full length, GAL4 activation domain fusion (pAD-GAL4-2.1 prey) (from UniProt P43297 1-462)
binding [2]: no binding

B5: polyA-binding protein PABP8, GAL4 activation domain fusion (protein, UniProt Q9FXA2 1-671)
chain: MAQIQHQGQNANGGVAVPGAAAAEAAAAAAGAAAAAAGAAQQGTTSLYVGDLDATVTDSQLFEAFTQAGQVVSVRVCRDMTTRRSLGYGYVNYATPQDASRALNELNFMALNGRAIRVMYSVRDPSLRKSGVGNIFIKNLDKSIDHKALHETFSAFGPILSCKVAVDPSGQSKGYGFVQYDTDEAAQGAIDKLNGMLLNDKQVYVGPFVHKLQRDPSGEKVKFTNVYVKNLSESLSDEELNKVFGEFGVTTSCVIMRDGEGKSKGFGFVNFENSDDAARAVDALNGKTFDDKEWFVGKAQKKSERETELKQKFEQSLKEAADKSQGSNLYVKNLDESVTDDKLREHFAPFGTITSCKVMRDPSGVSRGSGFVAFSTPEEATRAITEMNGKMIVTKPLYVALAQRKEDRKARLQAQFSQMRPVNMPPAVGPRMQMYPPGGPPMGQQLFYGQGPPAMIPQPGFGYQQQLVPGMRPGGSPMPNFFMPMMQQGQQQQQQQQQQQRPGGGRRGALPQPQQPSPMMQQQMHPRGRMYRYPQRDVNTMPGPTQNMLSVPYDVSSGGGVHHRDSPTSQPVPIVALATRLANAAPEQQRTMLGENLYPLVEQLEPESAAKVTGMLLEMDQTEVLHLLESPEALKAKVTEAMDVLRSVAQQQAGGAADQLASLSLGDNIVP
binding [3]: no binding
